From PMC4527612 (Journal of inorganic biochemistry, 2014)

Experiments:
[1] = test system: HeLa (cervix carcinoma); assay: Dark cytotoxicity, Trypan blue exclusion test; format: cell-based, human; conditions: read-out: IC50 (μM) ± S.E.M. HeLa, 48 h incubation
Outline: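 HeLa cells were grown in DMEM with 10% FBS, 2 mM L-glutamine and penicillin/streptomycin at 37 °C. They were seeded at 0.5 × 10^6/mL in glass vials, given 24 h, then exposed for 48 h in the dark to test compound in distilled water at various concentrations. Cells were trypsinised, stained 5–15 min with 0.4% Trypan blue and counted by hemocytometer. […] IC50 was derived from at least three experiments, mean ± S.E.M.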

[2] = test system: MCF-7 (breast adenocarcinoma); assay: Dark cytotoxicity, Trypan blue exclusion test; format: cell-based, human; conditions: read-out: IC50 (μM) ± S.E.M. MCF-7, 48 h incubation

## N.N.[Cl][Pt][Cl] [Cisplatin, cisplatin, reference compound]
[1]
  IC50: 11 ± 1.4 µM
[2]
  IC50: 46.7 ± 3.6 µM
